{
  "source": "patent US8222434B1",
  "about": "“Bactobolin analog and synthesis method thereof” (priority 2009, dated 2012)",
  "tested_on": "S. aureus COL (MRSA)",
  "assay": "CLSI microtiter MIC assay",
  "format": "cell-based, Staphylococcus aureus",
  "conditions": "24 hours at 35° C., average from two independent experiments",
  "procedure": "To test the potency of bactobolins, antibiotic assays were carried out against the human pathogens MRSA, VRE and V. parahaemo-lyticus, and against B. subtilis and E. coli (Table 3-C).\nThe minimum inhibitory concentrations (MIC) of each bactobolin was determined according to the 2003 guidelines of the Clinical and Laboratory Standards Institute (CLSI, formerly NCCLS) using the microtiter MIC method. Inocula for each test organism were prepared by suspending a colony from an LB agar plate into Tryptic Soy Broth and growing for 3-5 hours at 35° C. with shaking, then adjusting the culture turbidity in PBS to the equivalent of a 1.0 McFarland Standard (3×10^8 CFU/ml). These cell suspensions were used as inocula for microtiter MIC assays. 2.5 μL inoculum, which corresponded to 1×10^6 cells, was added to a 200 μL well containing each bactobolin diluted in cation-adjusted Mueller-Hinton II broth (actual CFU/ml ranged from 5×104 to 1×106), and these were incubated without shaking for 24 hours at 35° C. The MIC was defined as the lowest concentration of bactobolin (μg/ml) in which bacterial growth in the well was not measurable by determining the turbidity at 595 nm (A595) on a 96-well plate reader. See Table S8 for strains used in these assays.",
  "note": "Some results were stated once for a whole list of compounds, not compound by compound.",
  "data": [
    {"substance": "Bactobolin A", "values": [
      {"measurement": "Minimum Inhibitory Concentration (MIC)", "result": "< 1", "unit": "µg/mL"}
    ]}
  ]
}
